Results reported in the supplement of paper PMC5949888.
Most values lie at the floor of the assay. Slopes are relative: functional sequences can read slightly below zero.

system: Saccharomyces cerevisiae PS128 hsf1 delta, HSF1(1-493) fusion; experiment: growth estimate (transactivation domain function in HSF1 fusion, heat-shock survival) (a.u. (slope of normalised read count over time)); higher = stronger growth at 37°C, i.e. more transactivation activity; conditions: library: random library

| Substance | growth estimate |
| --- | --- |
| TPEGGNSSSAVRPRMYSLNG | < -0.25 |
| TPFDGGVRVRLSDSGTMATL | < -0.25 |
| TPGCVSIASGIRSFEGERRH | < -0.25 |
| TPGGAPCHKRSFAPNTAPGL | -0.246 |
| TPH | < -0.25 |
| TPHYH | < -0.25 |
| TPIQVLGTRVVFALSNLERS | < -0.25 |
| TPKVHRPALWDVSKIGLASM | < -0.25 |
| TPLGRAGY | < -0.25 |
| TPLIPQVDGRSSVCSGMCRD | < -0.25 |
| TPP | < -0.25 |
| TPPES | < -0.25 |
| TPPGDPRKPFNGSGRIT | < -0.25 |
| TPRLGKCVTLPGLPGICVF | -0.246 |
| TPSPCRSTDRRGVVLTH | < -0.25 |
| TPSPIASDKVIVRTLHYPN | < -0.25 |
| TPSSELWSYPVGFTRNRSLL | < -0.25 |
| TPTRRLGTAA | < -0.25 |
| TPTSSPGLFRRLSNW | < -0.25 |
| TQAESRYYEGTSQERGARRT | < -0.25 |
| TQALVFHVCLLAPFHEYRLA | < -0.25 |
| TQCASRCQRAHVMRIGPSAT | < -0.25 |
| TQEPTADRMG | < -0.25 |
| TQESPVVRWSGLWR | < -0.25 |
| TQGMQAIWPE | < -0.25 |

| Substance | growth estimate |
| --- | --- |
| TQGPT | < -0.25 |
| TQKASFYCRLPTWKREGQHG | < -0.25 |
| TQKCRSSGTRLFGVCSRLCC | < -0.25 |
| TQLFEVFLATPFLAV | < -0.25 |
| TQLIAGGPYEGSRNSKRAGR | < -0.25 |
| TQMREFGHERGPRGFVRRCR | < -0.25 |
| TQNDSRKKGEPRESVC | -0.246 |
| TQPCPALQATTYPRCAHRRV | < -0.25 |
| TQPIP | < -0.25 |
| TQPVGTNFSARRGNILTEPS | < -0.25 |
| TQQRVVHYEG | < -0.25 |
| TQSKGMSPS | < -0.25 |
| TQTILQRQ | < -0.25 |
| TQTPGAYS | < -0.25 |
| TQVKIRTLRGITI | < -0.25 |
| TQVRWRSRLP | < -0.25 |
| TQYHCLLDSCKHKSPAYFMG | < -0.25 |
| TQYIRKYQARQRKYDAHKSQ | < -0.25 |
| TRAMAILVSVA | < -0.25 |
| TRARRVESDWLEPASTTPLR | < -0.25 |
| TRATGG | < -0.25 |
| TRAWRSVWAFNINKSRSVPC | < -0.25 |
| TRAYVKGCGQGSQLHNGLSP | < -0.25 |
| TRCGLTAKNGRKASGFLPEA | < -0.25 |
| TRCGRDCAGYVQLSRMDPCV | < -0.25 |

| Substance | growth estimate |
| --- | --- |
| TRCKILRGTQYCHCGCVYME | < -0.25 |
| TRCSAQRLPGQPVRVW | < -0.25 |
| TRCSGLARSISGCSDVFEKT | < -0.25 |
| TRDDLP | < -0.25 |
| TRDLVTTGKSLFVGGSHARP | < -0.25 |
| TRDSGMGMRGGGIPSIAV | < -0.25 |
| TRDVAERIKSAGPASTALWL | < -0.25 |
| TREAIQ | < -0.25 |
| TRERLSLFPAH | < -0.25 |
| TRFGFFGYPYQLE | 0.0108 |
| TRFKAKLWSTSLVVECVAGL | < -0.25 |
| TRFTPACRGGNGPGDVDTT | < -0.25 |
| TRGCGLRSNLCTFPD | < -0.25 |
| TRGPWE | < -0.25 |
| TRGRYTAFGGTLDVSRLNHE | < -0.25 |
| TRGSG | < -0.25 |
| TRGTAHNGTVEWGLGAH | 0.116 |
| TRGVADWG | < -0.25 |
| TRICLLILLGVHVSHKVQTR | < -0.25 |
| TRIDLAIVGKNHLSFSSPGQ | -0.241 |
| TRIFKAPQL | < -0.25 |
| TRIHSSDSHIRVTVSASFDT | < -0.25 |
| TRINIASLRSHWCPH | < -0.25 |
| TRIRTEALVAPRIRAPPRVA | < -0.25 |
| TRIVELMATSSTIMRARHVT | < -0.25 |

At a glance, part of the list above:

| Substance | growth estimate |
| --- | --- |
| TRDLVTTGKSLFVGGSHARP | < -0.25 |
| TRDSGMGMRGGGIPSIAV | < -0.25 |
| TRDVAERIKSAGPASTALWL | < -0.25 |
| TREAIQ | < -0.25 |
| TRERLSLFPAH | < -0.25 |

Further results

| Substance | growth estimate |
| --- | --- |
| TRLCVTTY | < -0.25 |
| TRLGPELARRTLISYGANTP | < -0.25 |
| TRLGSSHSADNMEKLFGP | < -0.25 |
| TRLLFGVLPNFRAKC | < -0.25 |
| TRLLHSQICRQPRKLGSS | < -0.25 |
| TRNARSPCQSIHEGVDSPGL | < -0.25 |
| TRPS | < -0.25 |
| TRQP | < -0.25 |
| TRQVRFDQPGVRTWRA | < -0.25 |
| TRRHRLAGTVASRARNVTGT | < -0.25 |
| TRRQKCSGN | < -0.25 |
| TRRRSCSVCPLRYPGSTFSW | < -0.25 |
| TRRRSLDETGAQHYAHTRYR | < -0.25 |
| TRSVSRRGRACSFGPEPTQV | < -0.25 |
| TRTALHNPVSGGILVFSCSG | < -0.25 |
| TRTTLCTDVQSANIICPDGR | < -0.25 |
| TRVD | < -0.25 |
| TRVEFFVHGVRMFLKRSS | < -0.25 |
| TRVG | < -0.25 |
| TRVICAGSSEMSNCFVVIVH | < -0.25 |
| TRVRAACYVFQNIKNREQSG | < -0.25 |
| TRVRGLRGLKGYLSRSYKTP | < -0.25 |
| TRVRPVGGGVTRHLFLTRAP | < -0.25 |
